Measured values as given in the supplement of paper PMC10849652.
The other results are listed elsewhere or left out.

Protein sequences, listed by entry. Tags and fused reporters are not part of them. Lines headed by an entry give the natural chain unless they say otherwise; changes in a name come on top.
UniProt Q7Z3T8: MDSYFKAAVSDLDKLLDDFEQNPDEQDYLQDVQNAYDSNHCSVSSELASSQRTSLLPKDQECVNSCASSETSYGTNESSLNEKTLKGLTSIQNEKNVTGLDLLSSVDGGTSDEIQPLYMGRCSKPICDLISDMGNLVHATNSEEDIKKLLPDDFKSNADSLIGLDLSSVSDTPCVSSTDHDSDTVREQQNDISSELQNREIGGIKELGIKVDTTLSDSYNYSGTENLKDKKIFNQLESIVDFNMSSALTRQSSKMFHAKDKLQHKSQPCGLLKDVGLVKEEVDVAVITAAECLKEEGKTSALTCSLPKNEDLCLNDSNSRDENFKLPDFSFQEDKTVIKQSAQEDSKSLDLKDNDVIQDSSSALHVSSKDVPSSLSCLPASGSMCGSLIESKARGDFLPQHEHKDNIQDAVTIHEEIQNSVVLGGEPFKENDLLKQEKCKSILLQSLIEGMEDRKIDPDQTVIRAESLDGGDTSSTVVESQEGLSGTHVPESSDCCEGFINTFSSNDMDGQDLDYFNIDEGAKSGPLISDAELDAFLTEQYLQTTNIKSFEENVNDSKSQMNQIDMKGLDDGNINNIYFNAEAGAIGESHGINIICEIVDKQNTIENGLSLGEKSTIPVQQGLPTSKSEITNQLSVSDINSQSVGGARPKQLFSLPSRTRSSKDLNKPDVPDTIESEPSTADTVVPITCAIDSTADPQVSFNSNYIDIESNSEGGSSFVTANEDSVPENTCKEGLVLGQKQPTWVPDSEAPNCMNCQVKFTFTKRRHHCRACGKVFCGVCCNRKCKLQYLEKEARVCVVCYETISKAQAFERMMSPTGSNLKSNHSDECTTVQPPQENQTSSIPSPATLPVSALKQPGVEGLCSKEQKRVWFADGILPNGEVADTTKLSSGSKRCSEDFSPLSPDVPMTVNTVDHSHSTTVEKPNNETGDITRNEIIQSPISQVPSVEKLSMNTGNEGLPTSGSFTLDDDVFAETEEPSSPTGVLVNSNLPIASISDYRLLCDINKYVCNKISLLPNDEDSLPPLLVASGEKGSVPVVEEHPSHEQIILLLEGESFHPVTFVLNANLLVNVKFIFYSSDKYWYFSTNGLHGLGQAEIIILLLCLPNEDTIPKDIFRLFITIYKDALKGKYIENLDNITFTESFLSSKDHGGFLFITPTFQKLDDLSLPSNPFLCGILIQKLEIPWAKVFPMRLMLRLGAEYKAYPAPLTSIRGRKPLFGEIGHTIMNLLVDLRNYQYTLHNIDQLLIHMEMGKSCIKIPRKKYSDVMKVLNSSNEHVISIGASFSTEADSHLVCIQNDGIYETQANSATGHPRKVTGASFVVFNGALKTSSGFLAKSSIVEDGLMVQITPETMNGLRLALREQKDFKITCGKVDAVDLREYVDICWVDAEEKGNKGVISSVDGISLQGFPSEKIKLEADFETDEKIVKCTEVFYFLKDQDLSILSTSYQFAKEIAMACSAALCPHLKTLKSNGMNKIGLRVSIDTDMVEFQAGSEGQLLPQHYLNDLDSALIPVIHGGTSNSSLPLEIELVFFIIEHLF
UniProt Q9Y2Z4: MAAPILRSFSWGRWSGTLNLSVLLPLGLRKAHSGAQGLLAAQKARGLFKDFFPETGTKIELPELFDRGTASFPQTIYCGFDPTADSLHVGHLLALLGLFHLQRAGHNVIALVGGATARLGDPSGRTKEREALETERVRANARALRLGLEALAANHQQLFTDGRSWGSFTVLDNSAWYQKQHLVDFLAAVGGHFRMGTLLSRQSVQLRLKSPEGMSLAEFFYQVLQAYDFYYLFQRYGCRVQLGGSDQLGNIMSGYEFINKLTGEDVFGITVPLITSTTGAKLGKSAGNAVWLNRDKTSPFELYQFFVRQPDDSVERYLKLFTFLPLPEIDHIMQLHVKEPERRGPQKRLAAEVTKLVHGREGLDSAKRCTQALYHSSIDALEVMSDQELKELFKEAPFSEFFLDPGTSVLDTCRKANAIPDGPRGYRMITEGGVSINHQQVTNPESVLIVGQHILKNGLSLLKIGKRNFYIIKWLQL
UniProt Q969M3: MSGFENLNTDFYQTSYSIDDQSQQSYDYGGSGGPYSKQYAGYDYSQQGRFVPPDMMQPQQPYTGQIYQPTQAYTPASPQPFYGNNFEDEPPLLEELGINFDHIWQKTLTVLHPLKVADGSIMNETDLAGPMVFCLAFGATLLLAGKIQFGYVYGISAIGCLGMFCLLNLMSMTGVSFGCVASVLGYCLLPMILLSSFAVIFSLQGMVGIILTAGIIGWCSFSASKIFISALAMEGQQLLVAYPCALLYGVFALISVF
UniProt P67809, whole entry, looked up: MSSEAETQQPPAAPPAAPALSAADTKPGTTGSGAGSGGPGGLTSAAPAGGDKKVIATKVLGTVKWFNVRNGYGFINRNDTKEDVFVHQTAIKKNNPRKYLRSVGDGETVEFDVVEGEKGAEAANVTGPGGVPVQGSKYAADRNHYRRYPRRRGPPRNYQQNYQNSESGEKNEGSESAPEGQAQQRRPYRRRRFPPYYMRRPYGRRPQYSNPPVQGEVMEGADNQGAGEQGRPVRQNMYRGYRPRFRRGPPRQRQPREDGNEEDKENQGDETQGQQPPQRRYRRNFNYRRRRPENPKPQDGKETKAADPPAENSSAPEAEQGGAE
UniProt P16989, whole entry, looked up: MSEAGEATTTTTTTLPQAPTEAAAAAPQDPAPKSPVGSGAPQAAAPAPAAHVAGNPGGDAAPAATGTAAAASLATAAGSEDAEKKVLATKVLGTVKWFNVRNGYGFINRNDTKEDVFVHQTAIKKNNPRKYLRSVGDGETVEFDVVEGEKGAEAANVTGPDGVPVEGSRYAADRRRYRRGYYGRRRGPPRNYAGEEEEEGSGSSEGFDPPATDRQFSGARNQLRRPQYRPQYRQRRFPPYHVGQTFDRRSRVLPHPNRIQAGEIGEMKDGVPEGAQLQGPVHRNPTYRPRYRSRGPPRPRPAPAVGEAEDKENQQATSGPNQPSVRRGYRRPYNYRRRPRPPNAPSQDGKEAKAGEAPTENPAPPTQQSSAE
UniProt P17028: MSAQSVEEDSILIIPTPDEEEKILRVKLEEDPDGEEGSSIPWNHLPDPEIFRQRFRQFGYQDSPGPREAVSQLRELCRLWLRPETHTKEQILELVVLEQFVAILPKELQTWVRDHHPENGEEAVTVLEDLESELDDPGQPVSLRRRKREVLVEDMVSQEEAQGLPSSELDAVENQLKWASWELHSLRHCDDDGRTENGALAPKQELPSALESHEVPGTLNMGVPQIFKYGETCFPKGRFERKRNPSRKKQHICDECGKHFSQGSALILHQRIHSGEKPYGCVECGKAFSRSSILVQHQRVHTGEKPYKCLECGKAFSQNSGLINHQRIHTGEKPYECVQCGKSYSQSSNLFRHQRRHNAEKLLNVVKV
UniProt Q9H8U3: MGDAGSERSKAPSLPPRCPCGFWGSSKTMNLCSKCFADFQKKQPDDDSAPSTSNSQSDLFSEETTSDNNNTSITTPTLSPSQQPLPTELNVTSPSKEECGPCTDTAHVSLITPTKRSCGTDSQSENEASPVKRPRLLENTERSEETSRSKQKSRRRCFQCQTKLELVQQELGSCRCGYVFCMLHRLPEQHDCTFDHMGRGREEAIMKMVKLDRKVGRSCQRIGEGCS
UniProt Q9UPT8: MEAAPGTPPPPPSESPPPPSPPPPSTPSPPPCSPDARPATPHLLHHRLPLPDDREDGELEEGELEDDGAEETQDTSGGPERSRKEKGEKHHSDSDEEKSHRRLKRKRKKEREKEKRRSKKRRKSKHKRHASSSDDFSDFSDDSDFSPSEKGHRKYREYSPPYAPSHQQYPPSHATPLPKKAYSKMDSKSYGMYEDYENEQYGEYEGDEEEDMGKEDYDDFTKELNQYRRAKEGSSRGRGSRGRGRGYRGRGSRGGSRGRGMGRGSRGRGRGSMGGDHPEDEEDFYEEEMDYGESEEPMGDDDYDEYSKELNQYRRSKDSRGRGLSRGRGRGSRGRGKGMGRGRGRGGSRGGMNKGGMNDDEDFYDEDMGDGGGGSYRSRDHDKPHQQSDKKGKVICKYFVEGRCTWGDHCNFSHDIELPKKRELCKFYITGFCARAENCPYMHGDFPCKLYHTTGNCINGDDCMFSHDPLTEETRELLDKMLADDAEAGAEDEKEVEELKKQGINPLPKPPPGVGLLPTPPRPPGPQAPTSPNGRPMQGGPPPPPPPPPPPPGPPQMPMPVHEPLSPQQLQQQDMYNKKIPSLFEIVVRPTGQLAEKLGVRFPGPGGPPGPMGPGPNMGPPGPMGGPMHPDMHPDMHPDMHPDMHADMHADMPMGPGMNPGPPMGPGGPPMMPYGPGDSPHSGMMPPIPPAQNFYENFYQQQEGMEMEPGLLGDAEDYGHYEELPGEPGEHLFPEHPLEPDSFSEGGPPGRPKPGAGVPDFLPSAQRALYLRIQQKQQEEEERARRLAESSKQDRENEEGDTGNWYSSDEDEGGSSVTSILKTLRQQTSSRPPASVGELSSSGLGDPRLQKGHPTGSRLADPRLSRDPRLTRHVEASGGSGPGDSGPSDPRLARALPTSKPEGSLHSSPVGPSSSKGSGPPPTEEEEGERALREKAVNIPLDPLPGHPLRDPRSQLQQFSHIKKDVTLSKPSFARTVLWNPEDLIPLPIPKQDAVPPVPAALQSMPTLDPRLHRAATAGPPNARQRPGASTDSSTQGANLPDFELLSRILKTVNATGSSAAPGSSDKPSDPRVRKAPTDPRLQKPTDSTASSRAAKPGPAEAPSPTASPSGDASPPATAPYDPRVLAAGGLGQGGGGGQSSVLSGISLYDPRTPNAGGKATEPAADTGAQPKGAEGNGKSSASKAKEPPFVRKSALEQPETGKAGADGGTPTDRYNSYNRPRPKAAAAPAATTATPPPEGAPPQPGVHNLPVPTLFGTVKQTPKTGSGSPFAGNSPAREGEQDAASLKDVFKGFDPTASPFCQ
UniProt Q6FIF0: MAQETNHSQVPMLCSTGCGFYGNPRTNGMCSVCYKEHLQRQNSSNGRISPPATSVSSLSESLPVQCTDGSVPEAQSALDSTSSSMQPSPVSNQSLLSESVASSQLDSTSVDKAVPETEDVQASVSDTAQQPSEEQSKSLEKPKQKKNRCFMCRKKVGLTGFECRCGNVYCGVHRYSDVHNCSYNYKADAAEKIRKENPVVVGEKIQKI
UniProt O75844: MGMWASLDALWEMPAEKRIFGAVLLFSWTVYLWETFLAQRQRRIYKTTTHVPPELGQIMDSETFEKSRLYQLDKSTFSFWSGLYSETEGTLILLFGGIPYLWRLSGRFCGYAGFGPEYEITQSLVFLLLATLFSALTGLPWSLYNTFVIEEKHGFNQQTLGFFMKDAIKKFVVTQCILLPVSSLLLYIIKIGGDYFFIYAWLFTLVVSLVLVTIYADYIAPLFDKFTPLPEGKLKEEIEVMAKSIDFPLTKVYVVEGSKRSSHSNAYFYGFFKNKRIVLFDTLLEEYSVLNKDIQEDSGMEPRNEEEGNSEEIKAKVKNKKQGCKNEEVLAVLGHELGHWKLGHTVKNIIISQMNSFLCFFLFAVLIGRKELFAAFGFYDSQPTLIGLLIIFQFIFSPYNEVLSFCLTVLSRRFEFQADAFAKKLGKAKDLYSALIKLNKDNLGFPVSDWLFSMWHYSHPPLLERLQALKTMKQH
UniProt Q8IUH5: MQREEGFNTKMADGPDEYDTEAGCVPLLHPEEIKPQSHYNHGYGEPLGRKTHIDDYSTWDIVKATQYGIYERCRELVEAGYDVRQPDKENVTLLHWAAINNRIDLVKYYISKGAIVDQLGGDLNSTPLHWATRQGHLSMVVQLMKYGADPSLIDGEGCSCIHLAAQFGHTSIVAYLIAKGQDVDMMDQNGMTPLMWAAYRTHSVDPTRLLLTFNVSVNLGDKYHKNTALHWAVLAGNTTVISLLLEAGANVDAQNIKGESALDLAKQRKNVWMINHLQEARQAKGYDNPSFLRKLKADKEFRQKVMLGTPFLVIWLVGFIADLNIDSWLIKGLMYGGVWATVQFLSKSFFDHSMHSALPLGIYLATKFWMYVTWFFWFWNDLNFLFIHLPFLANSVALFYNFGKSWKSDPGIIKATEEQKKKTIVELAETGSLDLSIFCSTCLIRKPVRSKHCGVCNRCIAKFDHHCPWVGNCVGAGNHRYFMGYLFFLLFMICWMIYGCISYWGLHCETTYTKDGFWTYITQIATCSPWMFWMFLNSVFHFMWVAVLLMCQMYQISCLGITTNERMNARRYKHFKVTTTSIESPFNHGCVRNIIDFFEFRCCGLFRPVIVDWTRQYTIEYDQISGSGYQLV
UniProt P27348: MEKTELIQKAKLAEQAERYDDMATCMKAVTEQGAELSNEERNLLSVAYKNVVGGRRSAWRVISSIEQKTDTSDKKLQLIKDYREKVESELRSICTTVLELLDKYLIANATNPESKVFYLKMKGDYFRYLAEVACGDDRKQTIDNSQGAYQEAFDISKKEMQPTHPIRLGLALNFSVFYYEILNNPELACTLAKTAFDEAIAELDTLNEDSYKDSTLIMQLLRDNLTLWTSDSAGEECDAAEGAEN

How the values were obtained:
Assay in all cases: log2 fold change, soluble protein after heating vs DMSO (PISA); higher = thermal stabilisation; K562 cells, 10 uM, 30 min; active = over 0.2 and 3.5 SD of the protein, either way, in both replicates (recomputed)
[1] = compound: NC(=O)Nc1cc(-c2cccc(F)c2)sc1C(=O)N[C@H]1CCCNC1
In short: (§1)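 K562 cells at 2×10^6 cells/mL were given 10 μM compound for 30 min. Aliquots then went through 3 min of heating across 48°C-58°C, were pooled, and were extracted in PBS with 0.5% NP-40 at 4°C, and the supernatant after 21,000xg for 90 min was quantified by TMTpro 16plex LC-MS/MS with channel sums equalised. Thermal stability relative to control samples, from duplicates, is given as log2 fold change.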

[2] = compound: NC(=O)c1cnc(N[C@@H]2CCCC[C@@H]2N)nc1Nc1cccc(-n2nccn2)c1
In short: as §1

[3] = compound: NC1(c2ccc(-c3nc4ccn5c(=O)[nH]nc5c4cc3-c3ccccc3)cc2)CCC1
In short: as §1

[4] = compound: NCC(=O)Nc1ccc(-n2nc(C(F)(F)F)cc2-c2ccc3c(ccc4ccccc43)c2)cc1
In short: as §1

[5] = compound: Nc1ccccc1NC(=O)c1ccc(CNC(=O)OCc2cccnc2)cc1 [entinostat]
In short: as §1

[6] = compound: O=C(CCCCCCC(=O)Nc1ccccc1)NO [vorinostat]
In short: as §1

[7] = compound: O=C(CCCCCCNC(=O)c1cnc(N(c2ccccc2)c2ccccc2Cl)nc1)NO [citarinostat]
In short: as §1

[8] = compound: O=C(O)c1ccc2c(c1)nc(Nc1cccc(Cl)c1)c1ccncc12 [silmitasertib]
In short: as §1

[9] = compound: O=C1NC(=O)C(c2cnc3ccccn23)=C1c1cn2c3c(cc(F)cc13)CN(C(=O)N1CCCCC1)CC2
In short: as §1

[10] = compound: c1cc(OCCN2CCCCC2)cc(-c2n[nH]c3ccc(-c4nnc[nH]4)cc23)c1
In short: as §1

Measured: log2 fold change

ZC3HC1 (UniProt Q86WB0)
inactive: [1] -0.016 | [2] -0.054 | [3] -0.091 | [4] -0.076 | [5] 0.1 | [6] 0.04 | [7] 0.125 | [8] 0.06 | [9] -0.132 | [10] -0.046

ZFYVE1 (UniProt Q9HBF4)
inactive: [1] -0.069 | [2] 0.108 | [3] -0.038 | [4] -0.078 | [5] 0.059 | [6] -0.094 | [7] 0.055 | [8] -0.1 | [9] 0.06 | [10] 0.035

ZFYVE16 (UniProt Q7Z3T8)
inactive: [1] -0.068 | [2] -0.038 | [3] -0.079 | [4] 0.007 | [5] -0.024 | [6] -0.017 | [7] -0.01 | [8] 0.002 | [9] -0.066 | [10] -0.019

ZFPL1 (UniProt O95159)
inactive: [1] -0.04 | [2] 0.054 | [3] 0.058 | [4] 0.027 | [5] -0.03 | [6] -0.053 | [7] 0.046 | [8] 0.003 | [9] -0.003 | [10] 0.008

XPO7 (UniProt E7ESC6)
inactive: [1] -0.018 | [2] -0.037 | [3] -0.117 | [4] -0.029 | [5] 0.023 | [6] 0 | [7] 0.05 | [8] 0.005 | [9] -0.056 | [10] -0.029

YARS2 (UniProt Q9Y2Z4)
inactive: [1] -0.196 | [2] -0.058 | [3] 0.223 | [4] -0.189 | [5] -0.001 | [6] -0.064 | [7] 0.096 | [8] -0.019 | [9] -0.224 | [10] -0.036

YARS (UniProt P54577)
inactive: [1] -0.034 | [2] -0.104 | [3] -0.044 | [4] -0.045 | [5] 0.011 | [6] 0.023 | [7] 0.057 | [8] 0.061 | [9] 0.042 | [10] -0.032

XRN2 (UniProt Q9H0D6)
inactive: [1] -0.05 | [2] -0.002 | [3] 0.002 | [4] 0.013 | [5] -0.04 | [6] 0.025 | [7] 0.047 | [8] 0.025 | [9] 0.01 | [10] 0.015

XRCC3 (UniProt O43542)
inactive: [1] -0.022 | [2] -0.015 | [3] -0.001 | [4] 0.122 | [5] 0.199 | [6] 0.033 | [7] 0.014 | [8] -0.021 | [9] -0.063 | [10] -0.004

YIPF5 isoform 3 (UniProt Q969M3)
inactive: [1] 0.023 | [2] -0.016 | [3] 0.017 | [4] 0.021 | [5] -0.05 | [6] 0.156 | [7] 0.023 | [8] 0 | [9] 0.032 | [10] -0.043

YBX1 (UniProt P67809)
inactive: [1] 0.025 | [2] 0.048 | [3] 0.306 | [4] 0.055 | [5] -0.073 | [6] -0.056 | [7] -0.13 | [8] 0.125 | [9] 0.126 | [10] -0.156

ZFAND5 (UniProt O76080)
inactive: [1] -0.041 | [2] 0.084 | [3] 0.019 | [4] 0.103 | [5] -0.031 | [6] -0.047 | [7] 0 | [8] -0.03 | [9] -0.157 | [10] -0.063

ZDHHC20 (UniProt Q5W0Z9)
inactive: [1] -0.219 | [2] -0.001 | [3] -0.027 | [4] 0.093 | [5] 0.045 | [6] -0.021 | [7] -0.028 | [8] 0.08 | [9] 0.079 | [10] 0.053

XRCC6 (UniProt P12956)
inactive: [1] -0.064 | [2] -0.143 | [3] -0.139 | [4] -0.08 | [5] 0.098 | [6] 0.134 | [7] 0.107 | [8] 0.026 | [9] -0.119 | [10] -0.049

ZNF217 (UniProt O75362)
inactive: [1] 0.016 | [2] -0.053 | [3] -0.045 | [4] -0.081 | [5] 0.075 | [6] 0.056 | [7] -0.004 | [8] -0.073 | [9] -0.102 | [10] -0.096

Fetched one by one from the entries so far (two):
YBX1 (UniProt P67809)
inactive: [1] 0.025 | [2] 0.048 | [3] 0.306 | [4] 0.055 | [5] -0.073 | [6] -0.056 | [7] -0.13 | [8] 0.125 | [9] 0.126 | [10] -0.156

ZNF217 (UniProt O75362)
inactive: [1] 0.016 | [2] -0.053 | [3] -0.045 | [4] -0.081 | [5] 0.075 | [6] 0.056 | [7] -0.004 | [8] -0.073 | [9] -0.102 | [10] -0.096

Additional records follow.

YBX3 (UniProt P16989)
inactive: [1] -0.012 | [2] 0.136 | [3] 0.322 | [4] 0.063 | [5] -0.106 | [6] -0.018 | [7] -0.118 | [8] 0.123 | [9] 0.209 | [10] -0.144

ZNF24 (UniProt P17028)
inactive: [1] 0.041 | [2] -0.047 | [3] 0.123 | [4] -0.025 | [5] -0.091 | [6] 0.071 | [7] -0.091 | [8] 0.076 | [9] 0.068 | [10] -0.092

ZFAND3 (UniProt Q9H8U3)
inactive: [1] 0.059 | [2] -0.097 | [3] -0.021 | [4] 0.038 | [5] -0.007 | [6] 0.11 | [7] -0.009 | [8] 0.015 | [9] -0.039 | [10] -0.04

YIPF6 (UniProt Q96EC8)
inactive: [1] -0.081 | [2] -0.088 | [3] -0.024 | [4] 0.071 | [5] 0.228 | [6] -0.035 | [7] 0.011 | [8] 0.02 | [9] 0.01 | [10] 0.036

XXYLT1 (UniProt Q8NBI6)
inactive: [1] 0.018 | [2] -0.012 | [3] -0.009 | [4] 0.001 | [5] 0.047 | [6] -0.004 | [7] 0 | [8] 0.05 | [9] -0.04 | [10] -0.021

ZC3H4 (UniProt Q9UPT8)
inactive: [1] 0.009 | [2] 0.076 | [3] 0.21 | [4] 0.11 | [5] -0.072 | [6] -0.034 | [7] -0.032 | [8] 0.039 | [9] 0.092 | [10] -0.12

ZNF143 (UniProt P52747)
inactive: [1] 0.07 | [2] -0.106 | [3] -0.023 | [4] -0.047 | [5] -0.012 | [6] 0.037 | [7] 0.033 | [8] 0.023 | [9] -0.042 | [10] -0.06

ZFAND2B (UniProt Q8WV99)
inactive: [1] -0.035 | [2] 0.014 | [3] -0.041 | [4] 0.032 | [5] -0.043 | [6] 0.041 | [7] 0.065 | [8] 0.06 | [9] 0.008 | [10] -0.065

ZFAND6 (UniProt Q6FIF0)
inactive: [1] 0.12 | [2] 0.089 | [3] 0.056 | [4] 0.061 | [5] -0.007 | [6] 0.04 | [7] -0.081 | [8] -0.018 | [9] -0.013 | [10] -0.006

ZMPSTE24 (UniProt O75844)
inactive: [1] 0.018 | [2] -0.008 | [3] 0.02 | [4] 0.035 | [5] 0.004 | [6] -0.049 | [7] 0.033 | [8] 0.01 | [9] 0.036 | [10] -0.018

ZDHHC17 (UniProt Q8IUH5)
inactive: [1] 0.084 | [2] -0.003 | [3] -0.06 | [4] 0.012 | [5] -0.047 | [6] -0.079 | [7] -0.17 | [8] 0.025 | [9] 0.043 | [10] 0.068

YWHAQ (UniProt P27348)
inactive: [1] 0.065 | [2] 0.172 | [3] 0.007 | [4] 0.457 | [5] 0.116 | [6] 0.39 | [7] 0.02 | [8] 0 | [9] -0.095 | [10] 0.105
